The values that follow come from article PMC11323550.

Sequences of proteins named here, by UniProt entry; tags and fusion partners are left off. Residues count along the entry.
UniProt Q2FVZ6, residues 2-84: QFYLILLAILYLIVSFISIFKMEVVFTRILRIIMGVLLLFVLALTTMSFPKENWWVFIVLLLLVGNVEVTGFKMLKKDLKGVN
UniProt Q2FZP8: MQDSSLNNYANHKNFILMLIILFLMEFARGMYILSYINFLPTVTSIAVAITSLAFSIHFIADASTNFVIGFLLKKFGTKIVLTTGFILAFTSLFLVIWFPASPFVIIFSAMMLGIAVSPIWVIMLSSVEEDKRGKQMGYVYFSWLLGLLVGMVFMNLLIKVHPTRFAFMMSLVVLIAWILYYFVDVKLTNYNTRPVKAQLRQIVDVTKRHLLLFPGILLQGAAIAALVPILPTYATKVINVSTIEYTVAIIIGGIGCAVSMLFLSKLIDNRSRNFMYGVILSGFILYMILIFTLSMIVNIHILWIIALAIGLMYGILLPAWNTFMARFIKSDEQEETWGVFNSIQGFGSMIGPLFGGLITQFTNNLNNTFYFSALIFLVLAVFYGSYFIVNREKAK
UniProt Q2G093: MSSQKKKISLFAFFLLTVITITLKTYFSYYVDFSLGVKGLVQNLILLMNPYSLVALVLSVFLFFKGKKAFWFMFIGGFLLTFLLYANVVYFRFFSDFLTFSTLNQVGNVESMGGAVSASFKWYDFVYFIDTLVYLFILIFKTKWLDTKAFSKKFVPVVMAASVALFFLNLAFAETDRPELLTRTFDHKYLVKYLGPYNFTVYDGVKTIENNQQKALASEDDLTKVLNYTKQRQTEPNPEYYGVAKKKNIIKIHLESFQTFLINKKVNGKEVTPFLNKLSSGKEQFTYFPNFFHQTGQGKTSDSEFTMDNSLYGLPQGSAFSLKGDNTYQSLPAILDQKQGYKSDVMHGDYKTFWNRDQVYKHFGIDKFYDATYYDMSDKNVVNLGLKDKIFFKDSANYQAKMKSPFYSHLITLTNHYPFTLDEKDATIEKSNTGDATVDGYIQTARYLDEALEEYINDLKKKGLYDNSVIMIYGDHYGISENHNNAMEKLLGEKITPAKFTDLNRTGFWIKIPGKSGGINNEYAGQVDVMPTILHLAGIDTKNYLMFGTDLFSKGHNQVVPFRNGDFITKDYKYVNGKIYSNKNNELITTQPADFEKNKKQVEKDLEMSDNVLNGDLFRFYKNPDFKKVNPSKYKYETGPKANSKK

First the molecules themselves.
B1: T25 fused to N-terminus of UgtP (enzyme, UniProt Q2FZP7 1-391)
chain: MVTQNKKILIITGSFGNGHMQVTQSIVNQLNDMNLDHLSVIEHDLFMEAHPILTSICKKWYINSFKYFRNMYKGFYYSRPDKLDKCFYKYYGLNKLINLLIKEKPDLILLTFPTPVMSVLTEQFNINIPVATVMTDYRLHKNWITPYSTRYYVATKETKQDFIDVGIDPSTVKVTGIPIDNKFETPINQKQWLIDNNLDPDKQTILMSAGAFGVSKGFDTMITDILAKSANAQVVMICGKSKELKRSLTAKFKSNENVLILGYTKHMNEWMASSQLMITKPGGITITEGFARCIPMIFLNPAPGQELENALYFEEKGFGKIADTPEEAIKIVASLTNGNEQLTNMISTMEQDKIKYATQTICRDLLDLIGHSSQPQEIYGKVPLYARFFVK

No constants are given. Whether binding was seen depends on the method and setting. Some entries that bind do so weakly or less than the wild type. Sequences can lack the tags named with a protein.

This test deals with MspA amino acids 2-84 with T18 tag fused at the C-terminus (S. aureus) (UniProt Q2FVZ6). The experiment in a line: two-hybrid; bacterial two-hybrid (BACTH), T25 and T18 fusions co-transformed in E. coli BTH101; dotted on LB with X-gal and 1-mM IPTG, 30°C for 24 h; three replicates.
Regarding “T25 fused to N-terminus of LtaA (from UniProt Q2FZP8 1-396)”, the binding entry is recorded as “binds”.

For the molecule “T25 fused to N-terminus of LtaS (from UniProt Q2G093 1-646) (enzyme)”, the binding entry was “binds”.

B1: the binding result was “binds”.
